Values quoted from earlier work, collected in US20110129540A1, “Polymer of acrylic or methacrylic type comprising alpha-tocopherol grafts” (Flamel Technologies, priority 2009, published 2011).

Water-solubility (background statement): less than 1 μg/ml | Solubility of the paclitaxel in water (in water, no polymer): less than 0.25 μg/mL
SMILES: CC(=O)O[C@H]1C(=O)[C@@]2(C)[C@H]([C@H](OC(=O)c3ccccc3)[C@]3(O)C[C@H](OC(=O)[C@H](O)[C@@H](NC(=O)c4ccccc4)c4ccccc4)C(C)=C1C3(C)C)[C@]1(OC(C)=O)CO[C@@H]1C[C@@H]2O [paclitaxel]
